For at least one compound, name, drawing or mass did not settle the structure.
Test system: Apoe^−/− mice
Test: Oil Red O atherosclerotic lesion area after 7C1-siTgfbr and/or rapamycin, 4 months of high fat diet
Assay type: in vivo, mouse
Description: FIGS. 45A-45B are a graph and a series of images showing that 7C1-siTgfbr and rapamycin suppress atherosclerosis lesion development in Apoe^−/− mice after 4 months of high fat diet. FIG. 45A: Time frame of 7C1-siTgfbr1/Tgfbr2 lipid nanoparticle and rapamycin injections. FIG. 45B: Representative photomicrographs of Oil Red O-stained atherosclerotic lesions in PBS, 7C1-siLuciferase, DMSO, Rapamycin, or 7C1-siTgfbr treated mice.
FIG. 46 is a histogram illustrating the quantification of atherosclerotic lesions from FIG. 45B. Lesion area quantification. % Lesion area is the lesion area/total area of aorta. All data shown as mean±SD. (***p<0.001; one-way ANOVA with Newman-Keuls post hoc test for multiple comparison correction).
Apoe^−/− and Frs2^SMCKO/Apoe^−/− male mice were fed a Western diet (40% kcal % Fat, 1.25% Cholesterol, 0% Cholic Acid) for 8 or 16 weeks (Research Diets, product #D12108) starting at the age of 8 weeks. After 8 or 16 weeks of being fed a high-fat diet, mice were anesthetized and euthanized. […] The lesions located in the aorta, aortic roots and abdominal aorta were analyzed using Oil Red 0 staining. […] The surface lesion area was quantified with ImageJ software (NIH). […]
FIG. 46 is a histogram illustrating the quantification of atherosclerotic lesions from FIG. 45B. […]

CO[C@H]1C[C@@H]2CC[C@@H](C)[C@@](O)(O2)C(=O)C(=O)N2CCCC[C@H]2C(=O)O[C@H]([C@H](C)C[C@@H]2CC[C@@H](O)[C@H](OC)C2)CC(=O)[C@H](C)/C=C(\C)[C@@H](O)[C@@H](OC)C(=O)[C@H](C)C[C@H](C)/C=C/C=C/C=C/1C [rapamycin]
atherosclerosis lesion development (in words): suppress

From patent publication US11326167B2, “Methods and compositions for treating atherosclerosis” (YALE UNIVERSITY, priority 2016, dated 2022)
